These are yes or no findings as the source states them, for the method shown. Some binding calls cover weakened binding; strength is not graded here.
Target: native human soluble VEGFR-1 (sVEGFR-1) (human) (UniProt P17948)
Assay: ELISA; 96-well Maxisorp plates coated with 10 ug/ml sVEGFR-1; binding buffer PBS with 3% BSA, 1 mM CaCl2, 0.5 mM MgCl2; 2 ug/ml VEGFR-1/Fc, 4 ug/ml VEGFR-2/Fc or 1 ug/ml NRP-1/Fc added; detection with alkaline phosphatase-conjugated anti-human Fc antibody, absorbance at 405 nm; selected wells pre-incubated with 5 ug/ml D16F7 mAb for 30 min at room temperature; both purified

By UniProt entry, the sequences of proteins in these tests, tags left out. Where a name states a change or a piece, a line headed by the entry shows the natural chain unless it says otherwise. Chains listed by the source or under a name are the forms on record and can include a tag or linker. Residues count along the entry.
native human soluble VEGFR-1 (sVEGFR-1) (P17948, form named): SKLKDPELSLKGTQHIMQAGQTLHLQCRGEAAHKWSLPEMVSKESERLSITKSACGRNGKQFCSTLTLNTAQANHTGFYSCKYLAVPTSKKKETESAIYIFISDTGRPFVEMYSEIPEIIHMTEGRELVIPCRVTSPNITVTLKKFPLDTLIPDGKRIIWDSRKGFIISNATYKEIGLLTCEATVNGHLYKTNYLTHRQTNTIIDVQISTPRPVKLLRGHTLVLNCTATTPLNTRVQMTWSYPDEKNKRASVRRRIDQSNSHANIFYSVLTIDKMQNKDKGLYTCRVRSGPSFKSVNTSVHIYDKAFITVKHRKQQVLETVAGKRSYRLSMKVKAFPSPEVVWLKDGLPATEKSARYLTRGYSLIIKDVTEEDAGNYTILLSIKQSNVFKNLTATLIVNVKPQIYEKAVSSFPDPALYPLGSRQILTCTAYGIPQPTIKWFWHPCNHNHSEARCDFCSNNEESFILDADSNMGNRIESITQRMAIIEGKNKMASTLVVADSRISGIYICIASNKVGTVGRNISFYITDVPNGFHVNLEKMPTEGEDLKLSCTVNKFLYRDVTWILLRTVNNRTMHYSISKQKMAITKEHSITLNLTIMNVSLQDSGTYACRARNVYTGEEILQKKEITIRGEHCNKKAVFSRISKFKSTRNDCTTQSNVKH
UniProt O14786, residues 22-856: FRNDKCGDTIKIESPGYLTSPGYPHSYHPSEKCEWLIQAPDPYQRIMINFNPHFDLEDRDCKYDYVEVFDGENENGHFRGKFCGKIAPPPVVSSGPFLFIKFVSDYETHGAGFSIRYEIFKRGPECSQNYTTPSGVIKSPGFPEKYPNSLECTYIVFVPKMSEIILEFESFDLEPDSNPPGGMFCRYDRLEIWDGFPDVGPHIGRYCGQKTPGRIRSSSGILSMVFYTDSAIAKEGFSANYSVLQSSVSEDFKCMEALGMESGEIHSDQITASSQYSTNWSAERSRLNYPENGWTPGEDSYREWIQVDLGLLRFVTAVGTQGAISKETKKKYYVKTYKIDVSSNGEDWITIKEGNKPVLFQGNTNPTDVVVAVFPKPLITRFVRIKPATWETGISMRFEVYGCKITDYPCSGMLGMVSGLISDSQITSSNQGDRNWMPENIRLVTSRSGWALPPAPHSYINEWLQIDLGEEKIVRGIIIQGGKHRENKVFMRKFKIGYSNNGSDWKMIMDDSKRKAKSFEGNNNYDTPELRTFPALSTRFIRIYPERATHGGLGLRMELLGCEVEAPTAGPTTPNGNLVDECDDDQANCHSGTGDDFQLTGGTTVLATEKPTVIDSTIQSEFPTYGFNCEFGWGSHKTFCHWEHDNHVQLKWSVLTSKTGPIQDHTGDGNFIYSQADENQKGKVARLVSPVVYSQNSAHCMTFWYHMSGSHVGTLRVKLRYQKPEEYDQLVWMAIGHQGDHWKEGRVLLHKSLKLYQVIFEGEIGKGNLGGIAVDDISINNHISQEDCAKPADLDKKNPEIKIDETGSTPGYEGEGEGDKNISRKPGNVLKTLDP

binding: binds
Substance: recombinant neuropilin-1/Fc chimera (from UniProt O14786 22-856) (Fc fusion)
